Data from patent publication US5854388A, “Angiotensin IV peptides and receptor” (Washington State University Research Foundation, priority 1994, dated 1998).
A number of entries come with more than one value. This list holds those alone. The source may hold further records. The values listed for one entry differ for a reason that is not stated; dose, time, organism, isomer or construct need not be as stated for each record.

The chains behind the UniProt entries cited, without tags or fusion partners. Residues count along the entry.
UniProt F1N1Q8, 1-1022: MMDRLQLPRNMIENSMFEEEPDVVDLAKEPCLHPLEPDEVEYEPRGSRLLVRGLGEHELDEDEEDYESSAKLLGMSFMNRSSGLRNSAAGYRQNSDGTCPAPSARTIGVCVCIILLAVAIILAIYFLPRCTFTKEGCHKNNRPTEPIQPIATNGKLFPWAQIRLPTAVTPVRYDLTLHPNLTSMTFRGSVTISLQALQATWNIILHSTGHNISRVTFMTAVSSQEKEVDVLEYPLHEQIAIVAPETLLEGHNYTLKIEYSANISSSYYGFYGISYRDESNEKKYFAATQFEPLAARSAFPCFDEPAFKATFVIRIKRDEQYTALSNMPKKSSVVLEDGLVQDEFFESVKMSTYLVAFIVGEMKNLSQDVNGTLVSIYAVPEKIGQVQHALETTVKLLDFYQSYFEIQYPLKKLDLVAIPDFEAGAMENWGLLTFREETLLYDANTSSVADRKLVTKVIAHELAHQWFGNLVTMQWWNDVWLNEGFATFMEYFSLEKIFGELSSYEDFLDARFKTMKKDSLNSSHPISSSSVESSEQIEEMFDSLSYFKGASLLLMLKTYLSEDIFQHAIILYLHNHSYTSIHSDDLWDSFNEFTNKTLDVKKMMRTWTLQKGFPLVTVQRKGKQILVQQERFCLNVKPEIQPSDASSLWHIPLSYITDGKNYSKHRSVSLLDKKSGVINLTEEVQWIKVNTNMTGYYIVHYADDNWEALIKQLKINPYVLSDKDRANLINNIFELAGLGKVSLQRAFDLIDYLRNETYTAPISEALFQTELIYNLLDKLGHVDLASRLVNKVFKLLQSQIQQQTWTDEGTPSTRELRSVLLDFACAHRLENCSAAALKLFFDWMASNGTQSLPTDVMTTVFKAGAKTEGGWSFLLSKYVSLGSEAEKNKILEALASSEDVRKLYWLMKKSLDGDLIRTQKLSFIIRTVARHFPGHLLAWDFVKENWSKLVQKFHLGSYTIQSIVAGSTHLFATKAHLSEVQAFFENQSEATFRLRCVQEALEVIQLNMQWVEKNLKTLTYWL

Molecular target: AT4 receptor (Bos taurus, UniProt F1N1Q8)
Test: 125I-AIV binding and competition, coronary venular endothelial cell (CVEC) membranes
Set-up: species or system bovine

CC[C@H](C)[C@H](NC(=O)[C@H](Cc1ccc(O)cc1)NC(=O)[C@@H](NC(=O)[C@H](CCCNC(=N)N)NC(=O)[C@@H](N)CC(=O)O)C(C)C)C(=O)N[C@@H](Cc1cnc[nH]1)C(=O)N1CCC[C@H]1C(=O)N[C@@H](Cc1ccccc1)C(=O)O
increase in Ki (decrease in affinity) compared with AIV: 200 fold and 20 fold
